From PubChem BioAssay AID588590 (National Center for Advancing Translational Sciences (NCATS), 2011)
In all, about 390,000 compounds went through this assay and about 4,000 (1%) were called active. This list was built around the results that the source calls inconclusive (neither active nor inactive); the mix of calls is not that of the screen. Calls come from the whole dose curve; as a rule, active = well fitted inhibition curve with a large enough effect; inconclusive = small, poorly fitted or top-dose-only effect, or another doubt; inactive = no such curve, though single readings can be large or run the other way. A potency beside an inconclusive call is a rough fit, not a confirmed value.

Sequences of proteins named here, by UniProt entry; tags and fusion partners are left off. A change or cut given only in a name is not applied to a line headed by its entry.
UniProt Q9UNA4: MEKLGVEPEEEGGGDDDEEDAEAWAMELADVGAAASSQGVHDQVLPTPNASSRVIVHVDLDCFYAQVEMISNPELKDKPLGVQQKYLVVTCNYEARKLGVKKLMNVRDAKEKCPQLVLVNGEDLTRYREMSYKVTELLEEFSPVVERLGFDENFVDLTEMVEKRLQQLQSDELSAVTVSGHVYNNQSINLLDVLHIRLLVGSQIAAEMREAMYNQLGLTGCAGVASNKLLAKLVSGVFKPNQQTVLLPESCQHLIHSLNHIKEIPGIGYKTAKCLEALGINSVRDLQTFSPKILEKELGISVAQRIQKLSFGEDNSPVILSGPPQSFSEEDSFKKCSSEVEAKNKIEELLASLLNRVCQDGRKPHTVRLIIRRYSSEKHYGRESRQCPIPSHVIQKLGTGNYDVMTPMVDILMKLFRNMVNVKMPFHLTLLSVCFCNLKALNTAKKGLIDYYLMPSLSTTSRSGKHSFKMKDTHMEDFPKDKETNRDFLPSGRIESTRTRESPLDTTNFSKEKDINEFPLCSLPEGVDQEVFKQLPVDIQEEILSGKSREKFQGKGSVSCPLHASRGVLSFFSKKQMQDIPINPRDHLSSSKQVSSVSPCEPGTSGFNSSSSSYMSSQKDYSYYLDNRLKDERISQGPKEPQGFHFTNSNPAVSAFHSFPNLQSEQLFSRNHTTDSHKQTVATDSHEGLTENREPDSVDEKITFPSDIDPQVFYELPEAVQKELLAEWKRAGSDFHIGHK

Biological target: DNA polymerase iota (Homo sapiens) (UniProt Q9UNA4)
Test: qHTS for Inhibitors of Polymerase Iota
Details: Pol iota fluorescent replication assay, 10 min; series mostly up to 115 µM
How it was run: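 Pol iota at 10 nM preincubated 15 min with compounds at room temperature; reaction started with fluorescent substrate, 50 nM final. Fluorescence read kinetically at 0 and 10 min; buffer-only wells as negative control.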
Potency is the fitted concentration of half-maximal effect.

| Structure (SMILES) | Potency |
| --- | --- |
| O=C(COC(=O)c1ccco1)Nc1nnc(-c2ccccc2)o1 | inconclusive: 17.8 µM [inhibitor, partial curve, poor fit] |
| CCN(Cc1ccccc1)S(=O)(=O)c1ccc(-c2coc(C)n2)cc1 | inconclusive: 70.8 µM [inhibitor, partial curve, poor fit] |
| CCOC(=O)C1=C(C)Nc2nc(SCC)nn2C1c1ccc(OC)cc1 (centres undefined) | inactive |
| Cc1ccc(S(=O)(=O)N2CCN(C(=O)CSc3nc(N)cc(=O)[nH]3)CC2)c(C)c1 | inconclusive: 79.4 µM [inhibitor, partial curve] |
| NNc1nc(C(F)(F)F)nc2ccccc12 | inactive |
| O=c1cc(CN2CCN(S(=O)(=O)/C=C/c3ccccc3)CC2)c2ccc(O)cc2o1 | inconclusive: 35.5 µM [inhibitor, partial curve, poor fit] |
| N#CCC(=O)Nc1sc2c(c1C(N)=O)CCCC2 | inconclusive: 15.8 µM [inhibitor, full curve] |
| CCOC(CNC(=O)C(=O)Nc1cc2c3c(c1)CCC(=O)N3CCC2)OCC | inconclusive: 89.1 µM [inhibitor, single point] |
| COc1cccc(/C=N/NC(=O)c2ccc(N3CCCC3=O)cc2)c1 | inconclusive: 14.1 µM [inhibitor, full curve, poor fit] |
| Fc1ccc(-c2nc(Nc3cccc(C(F)(F)F)c3)nc3c2COc2ccccc2-3)cc1 | inconclusive: 89.1 µM [inhibitor, partial curve, poor fit] |
| CCOc1ccc(NC(=O)NC(C)CC)cc1 (centres undefined) | inconclusive: 89.1 µM [inhibitor, single point] |
| COc1ccccc1NS(=O)(=O)c1ccc(N/N=C/c2c(C)nn(-c3ccccc3)c2N2CCCC2)c([N+](=O)[O-])c1 | inactive |
| COc1cc(OC)c(NS(=O)(=O)c2ccc3oc(=O)c4ncn(C)c4c3c2)cc1Cl | inconclusive: 100 µM [inhibitor, partial curve, poor fit] |
| Nc1c(C=C2C=CC(=O)C=C2)c(=O)nc2snc(SCc3ccccc3)n12 | inconclusive: 17.8 µM [inhibitor, partial curve, poor fit] |
| COc1cccc2c1C(=O)C=C(C)C2=O | inactive |
| Cc1ccccc1OCCCN1C(=O)C(=O)c2cccc(C)c21 | inconclusive: 39.8 µM [inhibitor, single point] |
| CCn1cc(C(=O)NCc2ccc(Cl)cc2)c(=O)c2cc(S(=O)(=O)N(C)C3CCCCC3)ccc21 | inactive |
| c1ccc(C[C@H]2CNCCN2CCC23CC4CC(CC(C4)C2)C3)cc1 | inconclusive: 39.8 µM [inhibitor, single point] |
| Cc1csc(NC(=O)c2sc3nc(-c4cccs4)ccc3c2N)n1 | inconclusive: 3.55 µM [inhibitor, full curve, poor fit] |
| CCOC(=O)N1CCN(C(=O)CCN2C(=O)/C(=C\c3ccccc3OC)SC2=S)CC1 | inconclusive: 89.1 µM [inhibitor, partial curve, poor fit] |
| Cc1cccc(CCN2C(Nc3ccccc3)=NC[C@@H]2CC(C)C)c1 | inconclusive: 39.8 µM [inhibitor, partial curve, poor fit] |
| Cn1c(N)c(C(=O)CSc2nc3ccccc3c(=O)n2Cc2ccccc2)c(=O)n(C)c1=O | inconclusive: 4.47 µM [inhibitor, full curve, poor fit] |

| Structure (SMILES) | Potency |
| --- | --- |
| O=C(Nc1ccc(O)cc1)c1ccc2c(c1)C(=O)N(Cc1ccco1)C2=O | inconclusive: 22.4 µM [inhibitor, full curve, poor fit] |
| CCSc1nc2n(n1)C(c1ccc(C(=O)O)cc1)C(C(=O)Nc1ccccc1C)=C(C)N2 (centres undefined) | inactive |
| Cc1cc(C(=O)NCC(C)(C)N2CCOCC2)c(C)o1 | inconclusive: 89.1 µM [inhibitor, single point] |
| C[C@@]12CCC=C[C@H]1[C@H](c1ccccc1Br)N(Cc1ccccc1)C2=O | inconclusive: 56.2 µM [inhibitor, partial curve, poor fit] |
| COc1ccc(C(O)(C(=O)NNc2ccc(C)cc2)c2cccs2)cc1 (centres undefined) | inconclusive: 35.5 µM [inhibitor, partial curve, poor fit] |
| CCCS(=O)(=O)c1nc(S(=O)(=O)c2ccc(C)cc2)c(NC)s1 | inconclusive: 79.4 µM [inhibitor, partial curve, poor fit] |
| O=c1c2ccccc2ncn1-c1ccc(Cl)cc1 | inactive |
| O=C(CSc1nc(COc2ccccc2)nc2ccccc12)NC1CCCC1 | inconclusive: 79.4 µM [inhibitor, single point] |
| CC(=O)c1sc(N2C(=O)c3oc4ccccc4c(=O)c3C2c2ccc(C)cc2)nc1C (centres undefined) | inconclusive: 89.1 µM [inhibitor, single point] |
| Cc1cc(C)n2c(=S)[nH]nc2n1 | inactive |
| CN(C)c1ccc(NC(=O)CSc2nc3c(c(=O)[nH]2)CCCC3)cc1 | inconclusive: 20 µM [inhibitor, full curve, poor fit] |
| O=C(N/N=C\c1cccc([N+](=O)[O-])c1O)C1COc2ccccc2O1 (centres undefined) | inconclusive: 112 µM [inhibitor, single point] |
| COc1ccc(S(=O)(=O)N(C)C)cc1NC(=O)c1ccc(OCC(=O)N2CCOCC2)c(OC)c1 | inactive |
| C=CCOc1c(/C=N\NC(N)=O)cccc1OC | inconclusive: 112 µM [inhibitor, partial curve, poor fit] |
| O=C1NCCCC2c3c(cc(Br)c(O)c3Br)OC12N1CCCCC1 (centres undefined) | inconclusive: 31.6 µM [inhibitor, partial curve, poor fit] |
| COc1ccc(S(=O)(=O)NC(CCSC)C(=O)NC2CCCCC2)cc1 (centres undefined) | inactive |
| CCOC(=O)CSC1=C(C#N)C(=O)NC2(CCCCC2)S1 | inconclusive: 20 µM [inhibitor, full curve, poor fit] |
| N=c1c2c(-c3ccccc3)c(-c3ccccc3)n(Cc3ccco3)c2ncn1CCO | inconclusive: 28.2 µM [inhibitor, single point] |
| Cc1coc2c1C(=O)C(=O)c1c-2ccc2c(C)cccc12 | inconclusive: 6.31 µM [inhibitor, full curve, poor fit] |
| CCc1ccc(NS(=O)(=O)c2ccc3[nH]cc(C(=O)NCCCOC(C)C)c(=O)c3c2)cc1 | inconclusive: 89.1 µM [inhibitor, partial curve] |
| Cc1ccnc(NS(=O)(=O)c2ccc(NC(=O)Cc3ccc(Br)cc3)cc2)n1 | inconclusive: 100 µM [inhibitor, partial curve, poor fit] |
| CC(C)(C)c1nnc(NC(=O)c2cccs2)s1 | inconclusive: 7.94 µM [inhibitor, single point] |

At a glance, some entries already given.

| Structure (SMILES) | Potency |
| --- | --- |
| CCCS(=O)(=O)c1nc(S(=O)(=O)c2ccc(C)cc2)c(NC)s1 | inconclusive: 79.4 µM [inhibitor, partial curve, poor fit] |
| O=c1c2ccccc2ncn1-c1ccc(Cl)cc1 | inactive |
| O=C(CSc1nc(COc2ccccc2)nc2ccccc12)NC1CCCC1 | inconclusive: 79.4 µM [inhibitor, single point] |

The listing continues:

| Structure (SMILES) | Potency |
| --- | --- |
| O=C(NCc1cccnc1)c1nn(-c2ccc(F)cc2)nc1CO | inactive |
| CCCSc1nc2c([nH]c3ccccc32)c(=O)n1C | inactive |
| Cc1cc2ccccc2c(=O)n1CC(=O)NCC(=O)N(C)Cc1ccccc1 | inconclusive: 126 µM [inhibitor, single point] |
| COc1cc(CNc2nc3c(C)cc(C)cc3s2)ccc1O | inconclusive: 39.8 µM [inhibitor, single point] |
| CCN(CC)C(=O)CSc1nc2c(sc(=S)n2-c2ccccc2)c(=O)n1Cc1ccco1 | inconclusive: 25.1 µM [inhibitor, partial curve, poor fit] |
| C=CCn1c(C)cc(-c2csc(NC(=O)C3=COCCO3)n2)c1C | inconclusive: 31.6 µM [inhibitor, partial curve, poor fit] |
| O=C(Nc1cccc(Cl)c1)c1ccc2nc(CCc3ccccc3)oc2c1 | inactive |
| CN(C)C1=NC[C@H](Cc2ccccc2)N1CCc1ccc(F)cc1 | inconclusive: 39.8 µM [inhibitor, single point] |
| CCC1Oc2ccc(C)cc2N(CC(=O)NCc2ccc(OC)cc2)C1=O (centres undefined) | inconclusive: 89.1 µM [inhibitor, single point] |
| COc1ccccc1CNC(=O)c1cc(-c2ccccc2)n(Cc2cc(C)no2)n1 | inconclusive: 12.6 µM [inhibitor, full curve, poor fit] |
| CC(C)Oc1ccc(CNC(=O)C2CCN(c3nc4ccccc4nc3C(F)(F)F)CC2)cc1 | inactive |
| COc1cc(OC)c(NC(=O)C2CCN(C(=O)c3sc4nc[nH]c(=O)c4c3C)CC2)cc1Cl | inconclusive: 50.1 µM [inhibitor, partial curve, poor fit] |
| COc1ccc2nc(NC(=O)Nc3ccccc3)sc2c1 | inconclusive: 8.91 µM [inhibitor, partial curve, poor fit] |
| CC(=O)Oc1ccc2cc(-c3nc4ccccc4n3C)c(=O)oc2c1 | inconclusive: 44.7 µM [inhibitor, partial curve, poor fit] |
| CC(=O)NC1CC(=O)N(c2ccc3c(c2)OCCO3)C1 (centres undefined) | inactive |
| N#Cc1c(-c2cccnc2)c2c([nH]c1=S)CCCC2 | inconclusive: 10 µM [inhibitor, full curve, poor fit] |
| CCN(CC)S(=O)(=O)c1ccc(S(=O)(=O)N(CC(=O)Nc2ccccc2)Cc2ccco2)cc1 | inconclusive: 25.1 µM [inhibitor, full curve, poor fit] |
| C=CS(=O)(=O)c1ccc(Oc2ccc(S(=O)(=O)C=C)cc2)cc1 | active: 10 µM |
| N#Cc1cccc(NC(=O)CCNS(=O)(=O)c2ccc3[nH]c(=O)oc3c2)c1 | inconclusive: 89.1 µM [inhibitor, single point] |
| COc1ccc(C(=O)Nc2cccc(-c3ccc4nncn4n3)c2)cc1 | inconclusive: 89.1 µM [inhibitor, partial curve, poor fit] |
